From patent US20040038243A1
These are yes or no findings as the source states them, for the method shown. In cells and extracts the contact can be indirect. Some entries that bind do so weakly or less than the wild type. Tags and fused reporters may be left off the sequences shown.

Chains of the proteins cited; added tags and fusions are not shown.
UniProt P10415: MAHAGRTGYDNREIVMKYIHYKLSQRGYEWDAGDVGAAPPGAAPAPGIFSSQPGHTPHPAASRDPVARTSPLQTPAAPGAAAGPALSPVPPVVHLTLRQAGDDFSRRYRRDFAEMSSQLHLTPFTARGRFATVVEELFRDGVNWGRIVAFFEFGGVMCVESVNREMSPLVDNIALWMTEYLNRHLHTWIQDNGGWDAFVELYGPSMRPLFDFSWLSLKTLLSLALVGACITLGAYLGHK

B1: HA-p53AIP1α (protein, not shown: small tags and cut ends)
chain: MGSSSEASFRSAQASCSGARRQGLGRGDQNLSVMPPNGRAQTHTPGWVSDPLVLGAQVHGGCRGIEALSVSSGSWSSATVWILTGLGLGLSRPFLPGATVLRDRPLGSAFELSYDQKKAPLRLQ
B2: HA-p53AIP1β (protein, not shown: small tags and cut ends)
chain: MGSSSEASFRSAQASCSGARRQGLGRGDQNLSVMPPNGRAQTHTPGWVSDPLVLGAQVHGGCRGIEALSVSSGSWSSATVWILTVQ

Experiments:
[1] = molecular target: bcl-2 protein (human) (UniProt P10415); test: co-immunoprecipitation with anti-HA or anti-bcl-2 antibody from extracts of cotransfected COS7 cells, Western blot
[2] = molecular target: bcl-2 protein (human) (UniProt P10415); test: co-immunoprecipitation (IP with anti-bcl-2 or anti-HA antibody, immunoblotting), COS7 cells cotransfected with bcl-2 and HA-p53AIP1α
[3] = molecular target: bcl-2 protein (human) (UniProt P10415); test: co-immunoprecipitation from extracts of cotransfected COS7 cells, Western blot

Row | Binder | binding [1] | binding [2] | binding [3]
1 | B1 | binds | binds | –
2 | B2 | – | – | binds
